Results from patent publication US20060204502A1 (priority 2004, published 2006).
Some of these results come from one statement about several compounds together. Some ranges recur; such a range may be that of the whole group of compounds.

System: Human Melanoma A375
Experiment: MTT growth inhibitory assay, A375
Details: A375 cells, enhancement of paclitaxel IC50

Compound | Enhancement Factor (A3 antagonist at 5 μg/ml) | Enhancement Factor (A3 antagonist at 10 μg/ml)
CCN(CC)c1ccc(NC(=O)Nc2nc3nn(C)cc3c3nc(-c4ccco4)nn23)cc1.Cl [IL-10, N-1-(4-diethylamino-phenyl)-N′—S-[8-methyl-2-(2-furyl)-pyrazolo[4,3-e]1,2,4-triazolo[1,5-c]pyrimidine]-urea] | 8-12 | –
CN(C)c1ccc(NC(=O)Nc2nc3nn(C)cc3c3nc(-c4ccco4)nn23)cc1 [IL-11, N-1-(4-dimethylamino-phenyl)-N′-5-[8-methyl-2-(2-furyl)-pyrazolo[4,3-e]1,2,4-triazolo[1,5-c]pyrimidine]-urea] | 8-12 | –
CCCn1cc2c(nc(NC(=O)Nc3ccc(OC)cc3)n3nc(-c4ccco4)nc23)n1 [MRE3008F20, 5-[[(4-Methoxyphenyl)amino]carbonyl]amino-8-propyl-2-(2-furyl)-pyrazolo[4,3-e]1,2,4-triazolo[1,5-c]pyrimidine] | – | 8-12
